Results are given in words; binding and its absence hold for the method and conditions named. In cells and extracts the contact can be indirect. Some entries that bind do so weakly or less than the wild type. Where a sequence is shown, tags or fusion partners need not be part of it. Values belong to the binder of their own block, whether it stands above or below them.
Columns and labels:
[1] = biological target: T1, Flag-FXR (human) (UniProt Q96RI1); assay: co-IP
T1 sequence: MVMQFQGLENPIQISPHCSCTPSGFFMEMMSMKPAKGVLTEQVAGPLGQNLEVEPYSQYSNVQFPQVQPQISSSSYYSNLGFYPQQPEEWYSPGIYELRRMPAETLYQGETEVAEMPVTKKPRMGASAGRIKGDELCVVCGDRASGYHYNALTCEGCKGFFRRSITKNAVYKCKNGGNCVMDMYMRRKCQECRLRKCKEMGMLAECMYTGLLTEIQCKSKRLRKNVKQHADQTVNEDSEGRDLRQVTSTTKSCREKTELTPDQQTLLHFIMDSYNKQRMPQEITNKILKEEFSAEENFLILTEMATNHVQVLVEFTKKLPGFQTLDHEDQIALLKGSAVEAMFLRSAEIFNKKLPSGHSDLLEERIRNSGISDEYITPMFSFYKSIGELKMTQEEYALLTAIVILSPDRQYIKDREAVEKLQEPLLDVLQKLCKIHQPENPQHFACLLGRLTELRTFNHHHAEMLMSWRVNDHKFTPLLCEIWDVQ

Protein sequences, listed by entry. Tags and fused reporters are not part of them.
UniProt P42224: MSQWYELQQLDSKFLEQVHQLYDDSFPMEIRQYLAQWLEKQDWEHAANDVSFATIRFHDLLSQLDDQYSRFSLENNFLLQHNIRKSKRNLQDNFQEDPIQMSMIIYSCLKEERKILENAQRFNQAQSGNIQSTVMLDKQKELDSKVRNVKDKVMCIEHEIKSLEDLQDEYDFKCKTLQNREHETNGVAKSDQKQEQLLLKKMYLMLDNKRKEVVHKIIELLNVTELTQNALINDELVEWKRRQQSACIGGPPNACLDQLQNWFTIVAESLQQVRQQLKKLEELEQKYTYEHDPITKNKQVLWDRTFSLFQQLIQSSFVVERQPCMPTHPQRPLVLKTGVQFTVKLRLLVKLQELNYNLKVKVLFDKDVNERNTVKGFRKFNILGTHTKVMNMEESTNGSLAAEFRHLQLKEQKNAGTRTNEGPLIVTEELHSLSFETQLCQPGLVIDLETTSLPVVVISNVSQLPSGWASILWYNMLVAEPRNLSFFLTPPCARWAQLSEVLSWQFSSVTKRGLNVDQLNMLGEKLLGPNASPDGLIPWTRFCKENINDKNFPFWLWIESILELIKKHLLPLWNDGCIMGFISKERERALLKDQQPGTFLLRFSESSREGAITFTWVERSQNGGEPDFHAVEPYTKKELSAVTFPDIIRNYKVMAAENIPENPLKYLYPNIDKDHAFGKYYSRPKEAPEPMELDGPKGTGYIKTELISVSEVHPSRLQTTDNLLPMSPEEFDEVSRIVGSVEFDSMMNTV

[2] = biological target: T2, IRF3 (interferon regulatory factor 3), expressed in HEK293T for the interaction screening (human) (UniProt Q14653); assay: co-IP; extracts of HEK293T cells transfected with MYC-FXR and other indicated plasmids (interaction screening with components of interferon signaling); low salt lysis buffer (50 mmol/L HEPES, 150 mmol/L NaCl, 1% Triton X-100, pH 7.4), overnight
T2 sequence: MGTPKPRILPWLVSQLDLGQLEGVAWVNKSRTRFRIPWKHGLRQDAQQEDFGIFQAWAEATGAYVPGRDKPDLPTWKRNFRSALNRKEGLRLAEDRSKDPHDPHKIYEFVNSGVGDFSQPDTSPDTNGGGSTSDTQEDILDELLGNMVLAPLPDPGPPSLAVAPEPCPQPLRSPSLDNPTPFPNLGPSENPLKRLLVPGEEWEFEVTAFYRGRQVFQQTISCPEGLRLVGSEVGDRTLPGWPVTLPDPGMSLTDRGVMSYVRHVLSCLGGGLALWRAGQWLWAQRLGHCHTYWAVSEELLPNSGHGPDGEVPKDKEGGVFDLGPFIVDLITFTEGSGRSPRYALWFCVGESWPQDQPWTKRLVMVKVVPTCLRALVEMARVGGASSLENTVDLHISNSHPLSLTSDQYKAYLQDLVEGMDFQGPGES

[3] = biological target: STAT1 (human) (UniProt P42224); assay: as above
[4] = biological target: T3, Flag-IRF3 (human) (UniProt Q14653); assay: co-IP; HEK293T cells co-transfected with HA-FXR and Flag-IRF3 or its mutants; Flag-tagged proteins immunoprecipitated with anti-Flag beads, immunoblot
T3 sequence: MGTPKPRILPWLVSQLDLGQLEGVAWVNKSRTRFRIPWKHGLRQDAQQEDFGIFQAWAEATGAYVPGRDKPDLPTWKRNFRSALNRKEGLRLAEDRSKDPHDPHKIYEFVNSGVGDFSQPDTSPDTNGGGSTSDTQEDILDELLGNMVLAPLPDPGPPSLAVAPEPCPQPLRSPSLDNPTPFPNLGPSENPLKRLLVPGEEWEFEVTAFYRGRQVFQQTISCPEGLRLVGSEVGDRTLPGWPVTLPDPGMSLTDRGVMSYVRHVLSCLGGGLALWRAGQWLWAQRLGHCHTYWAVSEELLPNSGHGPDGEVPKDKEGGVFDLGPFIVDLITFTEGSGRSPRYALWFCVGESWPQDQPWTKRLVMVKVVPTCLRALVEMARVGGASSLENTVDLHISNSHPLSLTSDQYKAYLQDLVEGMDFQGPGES

- binding [1]: binds
B1: HA-IRF3 (protein, UniProt Q14653 1-427)
chain: MGTPKPRILPWLVSQLDLGQLEGVAWVNKSRTRFRIPWKHGLRQDAQQEDFGIFQAWAEATGAYVPGRDKPDLPTWKRNFRSALNRKEGLRLAEDRSKDPHDPHKIYEFVNSGVGDFSQPDTSPDTNGGGSTSDTQEDILDELLGNMVLAPLPDPGPPSLAVAPEPCPQPLRSPSLDNPTPFPNLGPSENPLKRLLVPGEEWEFEVTAFYRGRQVFQQTISCPEGLRLVGSEVGDRTLPGWPVTLPDPGMSLTDRGVMSYVRHVLSCLGGGLALWRAGQWLWAQRLGHCHTYWAVSEELLPNSGHGPDGEVPKDKEGGVFDLGPFIVDLITFTEGSGRSPRYALWFCVGESWPQDQPWTKRLVMVKVVPTCLRALVEMARVGGASSLENTVDLHISNSHPLSLTSDQYKAYLQDLVEGMDFQGPGES

- binding [2]: binds
- binding [3]: binds
B2: MYC-FXR (farnesoid X receptor) (protein, UniProt Q96RI1 1-486)
chain: MVMQFQGLENPIQISPHCSCTPSGFFMEMMSMKPAKGVLTEQVAGPLGQNLEVEPYSQYSNVQFPQVQPQISSSSYYSNLGFYPQQPEEWYSPGIYELRRMPAETLYQGETEVAEMPVTKKPRMGASAGRIKGDELCVVCGDRASGYHYNALTCEGCKGFFRRSITKNAVYKCKNGGNCVMDMYMRRKCQECRLRKCKEMGMLAECMYTGLLTEIQCKSKRLRKNVKQHADQTVNEDSEGRDLRQVTSTTKSCREKTELTPDQQTLLHFIMDSYNKQRMPQEITNKILKEEFSAEENFLILTEMATNHVQVLVEFTKKLPGFQTLDHEDQIALLKGSAVEAMFLRSAEIFNKKLPSGHSDLLEERIRNSGISDEYITPMFSFYKSIGELKMTQEEYALLTAIVILSPDRQYIKDREAVEKLQEPLLDVLQKLCKIHQPENPQHFACLLGRLTELRTFNHHHAEMLMSWRVNDHKFTPLLCEIWDVQ

- binding [4]: binds
B3: HA-FXR (protein, UniProt Q96RI1 1-486)
chain: MVMQFQGLENPIQISPHCSCTPSGFFMEMMSMKPAKGVLTEQVAGPLGQNLEVEPYSQYSNVQFPQVQPQISSSSYYSNLGFYPQQPEEWYSPGIYELRRMPAETLYQGETEVAEMPVTKKPRMGASAGRIKGDELCVVCGDRASGYHYNALTCEGCKGFFRRSITKNAVYKCKNGGNCVMDMYMRRKCQECRLRKCKEMGMLAECMYTGLLTEIQCKSKRLRKNVKQHADQTVNEDSEGRDLRQVTSTTKSCREKTELTPDQQTLLHFIMDSYNKQRMPQEITNKILKEEFSAEENFLILTEMATNHVQVLVEFTKKLPGFQTLDHEDQIALLKGSAVEAMFLRSAEIFNKKLPSGHSDLLEERIRNSGISDEYITPMFSFYKSIGELKMTQEEYALLTAIVILSPDRQYIKDREAVEKLQEPLLDVLQKLCKIHQPENPQHFACLLGRLTELRTFNHHHAEMLMSWRVNDHKFTPLLCEIWDVQ
